# Results of single-concentration screens

Sequences of proteins named here, by UniProt entry; tags and fusion partners are left off. Residues count along the entry.
UniProt Q4DA54, 1-478: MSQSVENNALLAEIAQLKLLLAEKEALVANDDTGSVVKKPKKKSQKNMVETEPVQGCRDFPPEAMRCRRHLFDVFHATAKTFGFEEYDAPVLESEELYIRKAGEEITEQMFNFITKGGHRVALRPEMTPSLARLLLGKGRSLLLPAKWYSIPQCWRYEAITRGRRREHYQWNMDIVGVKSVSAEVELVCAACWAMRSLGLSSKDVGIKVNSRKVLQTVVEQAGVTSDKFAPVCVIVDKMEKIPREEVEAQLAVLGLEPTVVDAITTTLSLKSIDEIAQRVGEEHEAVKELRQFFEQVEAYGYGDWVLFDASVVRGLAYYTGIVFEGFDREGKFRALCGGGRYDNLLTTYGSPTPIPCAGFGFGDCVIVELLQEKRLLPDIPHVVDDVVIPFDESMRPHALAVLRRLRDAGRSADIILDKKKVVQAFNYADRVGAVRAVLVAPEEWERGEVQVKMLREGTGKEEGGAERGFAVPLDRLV
UniProt P9WNZ1, whole entry: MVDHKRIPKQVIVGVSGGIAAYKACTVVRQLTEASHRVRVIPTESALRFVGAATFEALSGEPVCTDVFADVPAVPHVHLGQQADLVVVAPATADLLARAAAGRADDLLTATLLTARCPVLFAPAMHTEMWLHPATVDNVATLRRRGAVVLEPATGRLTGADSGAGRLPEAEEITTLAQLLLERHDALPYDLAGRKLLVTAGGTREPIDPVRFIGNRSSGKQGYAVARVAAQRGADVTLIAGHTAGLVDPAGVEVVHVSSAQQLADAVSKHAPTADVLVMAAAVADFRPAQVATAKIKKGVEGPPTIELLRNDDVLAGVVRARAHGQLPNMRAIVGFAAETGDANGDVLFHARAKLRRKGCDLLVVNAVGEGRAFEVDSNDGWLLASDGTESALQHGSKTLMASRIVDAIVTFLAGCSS

Measurements from “University of Dundee, Small-Polar-MMV Screening Library” (2021), ChEMBL document CHEMBL3988442.

TcHisRS: 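Histidine-tRNA ligase, Trypanosoma cruzi CL Brener (UniProt Q4DA54). Enzyme assay of histidyl-tRNA synthetase; the read-out is not stated. Concentration: 30 µM. Direction is inferred from retests: higher values go with stronger inhibition. About 69,000 compounds were tested under these conditions; 0.045% (about 31) showed 50% or more at least once.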
CoaBC: 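Coenzyme A biosynthesis protein CoaBC, Mycobacterium tuberculosis (UniProt P9WNZ1). Enzyme assay of CoaBC with a phosphate dye (Biomol Green) read at 650 nm. Concentration: 30 µM. Direction is inferred from only a few compounds that gave an IC50; most scored high, so higher reads as stronger inhibition. Most strong results did not repeat in a second test. About 67,000 compounds were tested under these conditions; 0.06% (about 40) showed 50% or more at least once.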

Each number is a percent effect as filed.
The controls that fix the scale are not given in the record; negative values are as filed.
This is an unselected part of the compounds tested.

Result for N#Cc1c(F)cccc1Nc1cnn(CC(O)CN2CCOCC2)c1 (stereo not shown) was TcHisRS: 0.6135%; CoaBC: 0.3841%.
Result for COc1ccccc1CCc1nc(CC2CCN(C)CC2)no1 was TcHisRS: 2.041%; CoaBC: -18.36%.
Result for O=C(O)C1(n2ccnc2)CCN(Cc2cc3ccccc3o2)CC1 was TcHisRS: 4.972%; CoaBC: -2.427%.
Result for O=C(CC1CCCC1)N1CCC(c2noc(-c3ccccn3)n2)CC1 was TcHisRS: -6.061%; CoaBC: -5.425%.
Result for CC(=O)NCCNC(=O)CN1CCN(Cc2nccn2C)C(C)C1 (stereo not shown) was TcHisRS: 2.682%; CoaBC: 3.71%.
Result for COc1cccc(C(=O)C2CCCN(c3nccc(N)n3)C2)c1 (stereo not shown) was TcHisRS: 3.509%; CoaBC: 1.603%.
Result for CN(C)C(=O)C1OC2(CCN(C(=O)N(C)C)CC2)c2ccccc21 (stereo not shown) was TcHisRS: 1.22%; CoaBC: 7.519%.
Result for COC[C@]12COC[C@H]1CN(C(=O)C1CCSCC1)C2 was TcHisRS: 2.299%; CoaBC: 3.893%.
Result for Cc1ccc2c(n1)N(CCn1cccn1)CCN(C(=O)NC(C)C)C2 was TcHisRS: -2.804%; CoaBC: -5.679%.
Result for CN(C)C(=O)CN1CCC2(CCCN(c3ncc(F)cn3)C2)C1=O (stereo not shown) was TcHisRS: 5.882%; CoaBC: -0.813%.
Result for O=C(NCC1CC1)C1CSCN1S(=O)(=O)c1cc(F)cc(F)c1 (stereo not shown) was TcHisRS: 4.878%; CoaBC: -0.6329%.
Result for O=C(c1cnc2ccc(F)cc2c1NCc1ccco1)N1CCCC1 was TcHisRS: 5.155%; CoaBC: -5.425%.
Result for COc1cccc(CC(=O)N2CCc3ncnc(C)c3CC2)c1 was TcHisRS: 6.329%.
Result for COCc1nc(C(=O)NS(=O)(=O)c2ccc(F)cc2F)cs1 was TcHisRS: 3.226%; CoaBC: -2.632%.
Result for CCOc1ccc(CN(C)C(=O)COc2ccc(C)nc2)cc1 was TcHisRS: 10.34%; CoaBC: -8.448%.
Result for CCc1cc(NCCNc2cccnc2)n2nccc2n1 was TcHisRS: 3.333%; CoaBC: -0.2132%.
Result for Cn1cc(CN2CCC3(CCN(c4cnn(C)c4)C3=O)C2)cn1 (stereo not shown) was TcHisRS: 7.563%; CoaBC: -8.722%.
Result for Cc1nc(C)n(CC2CCCN2Cc2ccccn2)n1 (stereo not shown) was TcHisRS: 0%; CoaBC: 5.832%.
Result for CCC(C(=O)Nc1ccc2nc(C)oc2c1)N1CCCC1=O (stereo not shown) was TcHisRS: 1.754%; CoaBC: 1.515%.
Result for OC[C@@H]1[C@H]2CN(c3ccccn3)CCN2C[C@H]1c1ccccc1 was TcHisRS: 1.156%; CoaBC: -1.104%.
Result for Cc1cnn(CCNCC(O)COc2ccc3ccccc3c2)c1 (stereo not shown) was TcHisRS: 2.286%; CoaBC: 3.937%.
Result for CSc1ccc(C2SCC(=O)Nc3c2c(=O)[nH]n3C2CCOCC2)cc1 (stereo not shown) was TcHisRS: 5.263%; CoaBC: 2.02%.
Result for Cc1nn(CC(O)CN2CCc3ccccc3C2)c(=O)c2ccccc12 (stereo not shown) was TcHisRS: 3.867%; CoaBC: -5.804%.
Result for CC(C)[C@H](NC(=O)N1CCN(c2ccc(Cl)cc2)CC1)C(=O)NC1CC1 was TcHisRS: 3.614%; CoaBC: 1.781%.

2 of the entries, repeated:

O=C(CC1CCCC1)N1CCC(c2noc(-c3ccccn3)n2)CC1 gave TcHisRS: -6.061%; CoaBC: -5.425%.
CC(C)[C@H](NC(=O)N1CCN(c2ccc(Cl)cc2)CC1)C(=O)NC1CC1 gave TcHisRS: 3.614%; CoaBC: 1.781%.